Measured values: PubChem BioAssay AID540276 (National Center for Advancing Translational Sciences (NCATS), 2011)
Screen size: about 300,000 compounds; about 5,400 (1.8%) were called active. This list was built around the results that the source calls inconclusive (neither active nor inactive); the mix of calls is not that of the screen. The call rests on the fitted dose curve; tested in HEK293 cells. Potencies of inconclusive entries are doubtful fits and often do not repeat.

test: qHTS for inhibitors of binding or entry into cells for Marburg Virus; conditions: Marburg virus pseudotyped entry inhibition, cell reporter; activity change, negative = inhibition: at 37.8 µM (top of the series) unless noted
On the % scale 0 is the no-effect control and ±100 the full control effect; potency means the concentration at half of the fitted maximal effect.

With CCCNC(=O)NC(=O)COC(=O)c1ccc(S(=O)(=O)N(C)c2ccccc2OC)cc1 as the molecule, how does the Potency read?
The Potency was inconclusive: 7.94 µM [inhibitor, single point].

With O=C(NNC(=O)c1ccc(Cl)nc1)c1ccc(Br)cc1 as the molecule, how does the “activity change, negative = inhibition” value read?
Its value is inactive: -3.9% [at 46.1 µM].

With Cn1c(=O)c(=O)n(C)c2cc(S(=O)(=O)N3CCCC3C(=O)Nc3cccc(F)c3)ccc21 (centres undefined) as the molecule, how does the Potency read?
The Potency was inconclusive: 35.5 µM [inhibitor, single point].

For Cc1ccc(S(=O)(=O)N2CCC(c3nc4c(nnn4Cc4ccccc4)c(=O)[nH]3)CC2)cc1, which Potency is on record?
Its Potency is inconclusive: 35.5 µM [inhibitor, single point].

With CC(=O)c1ccc2c(c1)C1C=CCC1C(c1ccc(S(=O)(=O)N3CCOCC3)cc1)N2 (centres undefined) as the molecule, how does the Potency read?
Its Potency is inconclusive: 35.5 µM [inhibitor, single point].

For O=C(CN1CCSC1=O)Nc1ccc(N2CCOCC2)cc1, which “activity change, negative = inhibition” value is on record?
The value was inactive: 19.3% [at 46.1 µM].

For O=S(=O)(Nc1cccnc1Cl)c1ccc2c(c1)OCCO2, which “activity change, negative = inhibition” value is on record?
Its value is inactive: 2.58%.

With O=C(CNc1cccc2ccccc12)N/N=C/C(Br)=C/c1ccccc1 as the molecule, how does the Potency read?
Its Potency is inconclusive: 16.4 µM [inhibitor, single point].

Which “activity change, negative = inhibition” value does the source give for CC(C)(C)SCCNC(=O)/C=C/c1ccc([N+](=O)[O-])cc1 here?
The value was inactive: 1.88%.

With S=c1sc2c(Cl)ncnc2n1-c1ccccc1 as the molecule, how does the Potency read?
Its Potency is active: 23.1 µM.

For CCn1cc(C2=NOC(C(=O)Nc3cccc(C(C)=O)c3)C2)c(C)n1 (centres undefined), which “activity change, negative = inhibition” value is on record?
The value was inactive: -29.8%.

For COC(=O)CCC(C)C1CCC2C3CCC4CC(O)CCC4(C)C3=CC(=O)C12C (centres undefined), which Potency is on record?
Its Potency is inconclusive: 7.08 µM [inhibitor, full curve, poor fit].

For CCN(CC)CCN(C(=O)c1ccc2c(c1)CCCC2)c1nc2cc(OC)c(OC)cc2s1, which Potency is on record?
The Potency was inconclusive: 3.98 µM [inhibitor, partial curve, poor fit].

With CC(C)Sc1nnc([C@@H](N)Cc2c[nH]c3ccccc23)o1 as the molecule, how does the Potency read?
The Potency was inconclusive: 0.259 µM [inhibitor, single point].

For Cc1ccc(C(C)C)c(OCC(=O)Nc2ccc(N3CCN(S(C)(=O)=O)CC3)cc2)c1, which “activity change, negative = inhibition” value is on record?
Its value is inactive: -17.4%.

Which Potency does the source give for Cc1[nH]n(-c2ccccc2)c(=O)c1Sc1ccc(Cl)cc1 here?
The Potency was inconclusive: 0.651 µM [inhibitor, full curve, poor fit].

For COc1ccc(NS(=O)(=O)c2ccc(C)c(C(=O)NNC(=O)c3csc(N4CCOCC4)n3)c2)cc1, which Potency is on record?
Its Potency is inconclusive: 14.1 µM [inhibitor, single point].

Which Potency does the source give for COc1cc(/C=N/N(CCO)C2=NS(=O)(=O)c3ccccc32)cc(OC)c1OC here?
Its Potency is inconclusive: 35.5 µM [inhibitor, single point].

For CCOC(=O)C1=NN(C(=O)c2ccco2)C2(CC2)C1, which Potency is on record?
Its Potency is inconclusive: 14.1 µM [activator, single point].
